32 targets from the supplement of paper PMC12067093, “Discovery and optimisation of a covalent ligand for TRIM25 and its application to targeted protein ubiquitination” (Chemical Science, 2025) can be followed below.

The chains behind the UniProt entries cited, without tags or fusion partners. Where a name states a change or a piece, a line headed by the entry shows the natural chain unless it says otherwise.
UniProt O94880: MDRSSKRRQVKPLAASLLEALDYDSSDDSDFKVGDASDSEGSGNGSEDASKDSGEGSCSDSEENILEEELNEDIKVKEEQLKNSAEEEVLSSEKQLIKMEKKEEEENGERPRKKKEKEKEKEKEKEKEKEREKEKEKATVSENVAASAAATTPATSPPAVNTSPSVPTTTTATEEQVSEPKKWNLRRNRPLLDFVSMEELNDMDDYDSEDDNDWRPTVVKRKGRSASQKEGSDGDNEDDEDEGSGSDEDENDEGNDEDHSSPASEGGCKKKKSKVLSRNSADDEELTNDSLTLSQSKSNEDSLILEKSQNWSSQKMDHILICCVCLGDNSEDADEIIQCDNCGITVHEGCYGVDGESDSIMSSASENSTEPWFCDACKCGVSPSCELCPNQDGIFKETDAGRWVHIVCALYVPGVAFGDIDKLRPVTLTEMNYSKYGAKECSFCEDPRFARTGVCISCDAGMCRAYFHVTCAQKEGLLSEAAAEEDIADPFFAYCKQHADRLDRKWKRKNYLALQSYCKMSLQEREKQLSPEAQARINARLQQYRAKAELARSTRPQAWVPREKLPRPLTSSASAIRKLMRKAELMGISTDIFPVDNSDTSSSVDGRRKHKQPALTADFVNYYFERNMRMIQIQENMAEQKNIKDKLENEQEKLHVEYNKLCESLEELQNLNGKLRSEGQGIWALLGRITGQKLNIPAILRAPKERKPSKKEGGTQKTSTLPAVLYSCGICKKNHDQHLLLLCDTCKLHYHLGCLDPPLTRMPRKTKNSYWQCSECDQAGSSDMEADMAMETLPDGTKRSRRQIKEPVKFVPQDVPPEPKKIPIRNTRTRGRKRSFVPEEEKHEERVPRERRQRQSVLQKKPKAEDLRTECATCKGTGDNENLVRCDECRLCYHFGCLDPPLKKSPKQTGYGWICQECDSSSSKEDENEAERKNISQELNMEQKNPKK
UniProt O43175: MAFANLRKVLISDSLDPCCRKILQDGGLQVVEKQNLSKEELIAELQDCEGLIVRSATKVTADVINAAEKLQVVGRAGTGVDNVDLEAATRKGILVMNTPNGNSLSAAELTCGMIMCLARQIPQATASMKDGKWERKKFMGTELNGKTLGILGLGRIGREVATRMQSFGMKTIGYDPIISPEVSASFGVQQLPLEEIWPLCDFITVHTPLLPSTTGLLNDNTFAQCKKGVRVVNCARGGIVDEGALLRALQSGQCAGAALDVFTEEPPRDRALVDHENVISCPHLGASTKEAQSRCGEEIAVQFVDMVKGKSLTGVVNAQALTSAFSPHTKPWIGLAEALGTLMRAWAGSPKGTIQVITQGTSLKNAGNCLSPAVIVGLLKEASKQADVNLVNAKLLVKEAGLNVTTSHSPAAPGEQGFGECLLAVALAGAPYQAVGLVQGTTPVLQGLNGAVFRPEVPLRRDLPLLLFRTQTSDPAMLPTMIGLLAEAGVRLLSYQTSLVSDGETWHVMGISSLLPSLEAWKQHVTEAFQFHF
UniProt P07737, whole entry, looked up: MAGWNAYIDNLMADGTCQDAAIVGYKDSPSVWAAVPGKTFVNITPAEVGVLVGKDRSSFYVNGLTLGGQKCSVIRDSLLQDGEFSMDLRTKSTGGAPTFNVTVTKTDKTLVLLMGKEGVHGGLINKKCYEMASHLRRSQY
UniProt P12955: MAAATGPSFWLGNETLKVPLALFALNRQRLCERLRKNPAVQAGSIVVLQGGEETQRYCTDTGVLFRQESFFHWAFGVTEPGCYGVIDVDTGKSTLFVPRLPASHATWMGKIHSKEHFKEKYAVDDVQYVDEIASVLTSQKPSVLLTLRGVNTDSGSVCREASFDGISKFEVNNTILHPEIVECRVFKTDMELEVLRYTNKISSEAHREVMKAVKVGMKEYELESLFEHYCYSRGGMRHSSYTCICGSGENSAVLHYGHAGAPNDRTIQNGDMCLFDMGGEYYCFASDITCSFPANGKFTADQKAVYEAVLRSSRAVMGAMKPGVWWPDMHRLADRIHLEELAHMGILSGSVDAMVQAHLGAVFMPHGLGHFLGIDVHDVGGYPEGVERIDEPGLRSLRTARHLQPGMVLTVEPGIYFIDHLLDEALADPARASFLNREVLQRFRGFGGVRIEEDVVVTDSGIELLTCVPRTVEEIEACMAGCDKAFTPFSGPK
UniProt Q9UPP1: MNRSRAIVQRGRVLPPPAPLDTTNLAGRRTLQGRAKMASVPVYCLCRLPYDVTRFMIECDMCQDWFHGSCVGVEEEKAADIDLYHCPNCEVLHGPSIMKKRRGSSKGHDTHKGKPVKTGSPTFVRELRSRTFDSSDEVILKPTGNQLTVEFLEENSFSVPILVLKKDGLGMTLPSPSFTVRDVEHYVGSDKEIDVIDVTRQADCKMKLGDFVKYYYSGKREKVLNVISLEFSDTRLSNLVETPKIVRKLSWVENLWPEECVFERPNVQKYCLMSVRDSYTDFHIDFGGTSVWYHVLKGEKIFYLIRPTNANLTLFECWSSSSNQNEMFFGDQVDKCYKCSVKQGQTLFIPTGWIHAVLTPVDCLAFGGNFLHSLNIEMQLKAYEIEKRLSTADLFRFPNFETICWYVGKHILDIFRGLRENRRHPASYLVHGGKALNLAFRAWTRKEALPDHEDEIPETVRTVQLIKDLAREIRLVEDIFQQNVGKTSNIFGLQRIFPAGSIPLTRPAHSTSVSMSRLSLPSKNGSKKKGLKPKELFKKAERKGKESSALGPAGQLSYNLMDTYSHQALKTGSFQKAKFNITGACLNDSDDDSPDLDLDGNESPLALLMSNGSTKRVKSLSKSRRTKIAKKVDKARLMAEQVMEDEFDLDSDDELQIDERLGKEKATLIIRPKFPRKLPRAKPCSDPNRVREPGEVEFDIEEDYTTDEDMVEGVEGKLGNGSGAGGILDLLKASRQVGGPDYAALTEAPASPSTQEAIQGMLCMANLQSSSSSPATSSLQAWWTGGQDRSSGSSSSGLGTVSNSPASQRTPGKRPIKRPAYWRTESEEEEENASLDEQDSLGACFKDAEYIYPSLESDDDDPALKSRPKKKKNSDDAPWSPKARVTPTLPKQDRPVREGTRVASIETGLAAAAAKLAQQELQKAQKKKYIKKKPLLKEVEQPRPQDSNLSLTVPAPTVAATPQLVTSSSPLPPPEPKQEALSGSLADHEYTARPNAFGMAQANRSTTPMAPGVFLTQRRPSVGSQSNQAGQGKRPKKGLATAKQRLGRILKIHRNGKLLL
UniProt Q96G03: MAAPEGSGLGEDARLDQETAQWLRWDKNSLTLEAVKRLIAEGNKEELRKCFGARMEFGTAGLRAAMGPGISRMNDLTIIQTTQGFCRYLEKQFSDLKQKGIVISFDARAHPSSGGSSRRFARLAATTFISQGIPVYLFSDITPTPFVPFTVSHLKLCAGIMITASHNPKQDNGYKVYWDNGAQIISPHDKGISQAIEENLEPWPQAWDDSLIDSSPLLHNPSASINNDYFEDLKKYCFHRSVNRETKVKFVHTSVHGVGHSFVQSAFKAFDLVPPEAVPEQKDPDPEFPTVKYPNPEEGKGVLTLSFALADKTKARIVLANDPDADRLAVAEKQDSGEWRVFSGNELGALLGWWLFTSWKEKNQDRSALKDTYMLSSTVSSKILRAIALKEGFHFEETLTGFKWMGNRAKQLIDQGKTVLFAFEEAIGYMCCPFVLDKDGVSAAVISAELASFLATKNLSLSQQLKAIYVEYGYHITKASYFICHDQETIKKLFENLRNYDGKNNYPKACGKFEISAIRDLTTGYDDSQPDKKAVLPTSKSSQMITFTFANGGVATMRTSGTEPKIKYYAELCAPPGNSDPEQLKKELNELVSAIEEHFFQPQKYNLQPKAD
UniProt Q13608: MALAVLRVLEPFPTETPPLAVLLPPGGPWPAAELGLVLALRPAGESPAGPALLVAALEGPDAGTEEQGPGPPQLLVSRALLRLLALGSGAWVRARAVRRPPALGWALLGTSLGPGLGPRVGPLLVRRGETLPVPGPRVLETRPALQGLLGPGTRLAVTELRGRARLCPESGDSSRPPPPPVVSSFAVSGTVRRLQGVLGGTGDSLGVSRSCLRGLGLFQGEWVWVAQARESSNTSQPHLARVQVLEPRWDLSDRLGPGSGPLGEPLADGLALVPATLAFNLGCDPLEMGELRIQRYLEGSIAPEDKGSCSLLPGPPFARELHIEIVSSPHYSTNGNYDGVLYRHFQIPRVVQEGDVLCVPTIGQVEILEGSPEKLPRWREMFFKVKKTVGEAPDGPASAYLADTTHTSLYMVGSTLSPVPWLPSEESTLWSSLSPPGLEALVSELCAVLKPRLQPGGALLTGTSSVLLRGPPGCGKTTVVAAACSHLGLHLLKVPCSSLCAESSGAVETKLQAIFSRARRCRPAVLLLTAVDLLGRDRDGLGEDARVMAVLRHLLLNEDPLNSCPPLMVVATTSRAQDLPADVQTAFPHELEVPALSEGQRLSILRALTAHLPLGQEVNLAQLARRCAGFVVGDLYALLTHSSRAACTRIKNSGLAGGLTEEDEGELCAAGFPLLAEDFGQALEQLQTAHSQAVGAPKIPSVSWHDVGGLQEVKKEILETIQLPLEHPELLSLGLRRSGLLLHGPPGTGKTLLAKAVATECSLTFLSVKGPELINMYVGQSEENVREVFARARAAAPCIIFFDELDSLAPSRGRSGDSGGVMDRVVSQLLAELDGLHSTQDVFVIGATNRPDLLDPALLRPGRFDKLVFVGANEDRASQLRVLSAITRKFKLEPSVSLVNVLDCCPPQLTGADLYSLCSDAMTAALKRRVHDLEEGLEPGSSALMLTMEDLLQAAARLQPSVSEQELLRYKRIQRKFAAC
UniProt P56589: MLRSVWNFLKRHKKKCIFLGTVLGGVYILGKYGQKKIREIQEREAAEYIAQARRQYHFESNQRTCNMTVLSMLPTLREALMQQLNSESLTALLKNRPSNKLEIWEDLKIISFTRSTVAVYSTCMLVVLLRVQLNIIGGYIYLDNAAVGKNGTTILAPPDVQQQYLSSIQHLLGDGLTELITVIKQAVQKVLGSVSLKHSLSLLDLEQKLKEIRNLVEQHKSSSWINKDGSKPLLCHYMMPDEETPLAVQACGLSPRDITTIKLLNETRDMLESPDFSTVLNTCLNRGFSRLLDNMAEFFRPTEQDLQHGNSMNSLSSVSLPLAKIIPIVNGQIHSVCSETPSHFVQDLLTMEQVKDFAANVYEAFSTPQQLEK
UniProt P35080, whole entry: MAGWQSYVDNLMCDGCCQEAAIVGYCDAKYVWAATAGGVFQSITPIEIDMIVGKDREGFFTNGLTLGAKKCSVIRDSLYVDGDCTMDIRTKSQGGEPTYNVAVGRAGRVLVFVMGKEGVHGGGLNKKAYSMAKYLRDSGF
UniProt P46020: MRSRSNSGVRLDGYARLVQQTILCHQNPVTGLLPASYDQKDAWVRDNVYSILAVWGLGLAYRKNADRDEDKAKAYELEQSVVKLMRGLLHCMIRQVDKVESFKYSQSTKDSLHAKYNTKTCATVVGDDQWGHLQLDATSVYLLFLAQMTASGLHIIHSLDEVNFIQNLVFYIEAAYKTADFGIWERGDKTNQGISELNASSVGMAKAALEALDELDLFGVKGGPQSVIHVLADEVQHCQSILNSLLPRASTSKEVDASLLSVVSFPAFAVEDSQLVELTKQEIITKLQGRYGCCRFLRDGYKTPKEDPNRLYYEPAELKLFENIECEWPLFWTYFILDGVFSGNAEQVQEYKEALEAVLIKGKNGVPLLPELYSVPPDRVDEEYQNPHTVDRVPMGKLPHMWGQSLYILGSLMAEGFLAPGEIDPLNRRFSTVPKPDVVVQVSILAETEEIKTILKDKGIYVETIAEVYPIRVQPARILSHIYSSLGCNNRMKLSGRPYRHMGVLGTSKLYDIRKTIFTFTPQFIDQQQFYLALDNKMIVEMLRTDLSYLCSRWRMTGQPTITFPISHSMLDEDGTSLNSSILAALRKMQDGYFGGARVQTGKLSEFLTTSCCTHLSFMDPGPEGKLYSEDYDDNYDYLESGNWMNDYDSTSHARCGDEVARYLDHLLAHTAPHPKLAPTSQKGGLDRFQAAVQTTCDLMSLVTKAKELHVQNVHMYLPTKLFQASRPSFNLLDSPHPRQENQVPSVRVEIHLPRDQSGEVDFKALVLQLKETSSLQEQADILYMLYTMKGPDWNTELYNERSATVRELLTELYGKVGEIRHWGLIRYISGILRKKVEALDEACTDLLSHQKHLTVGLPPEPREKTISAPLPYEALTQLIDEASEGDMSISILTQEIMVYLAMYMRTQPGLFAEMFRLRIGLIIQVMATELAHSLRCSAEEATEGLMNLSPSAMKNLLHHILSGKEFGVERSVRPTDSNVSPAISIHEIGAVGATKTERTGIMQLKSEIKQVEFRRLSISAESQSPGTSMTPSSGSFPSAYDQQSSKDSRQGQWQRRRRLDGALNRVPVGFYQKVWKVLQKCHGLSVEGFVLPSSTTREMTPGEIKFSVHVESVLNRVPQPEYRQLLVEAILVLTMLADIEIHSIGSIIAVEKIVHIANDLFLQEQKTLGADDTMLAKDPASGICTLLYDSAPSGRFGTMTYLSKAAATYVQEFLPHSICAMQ

The list shows a part of the results.

Compound in the test: CC1Cc2ccccc2N1C(=O)C1CCCN(C1)C(=O)CCl (mixture of isomers) [TRIM25 ligand 11 (diastereomer mixture)]
The test can be described thus: probe-labelled cysteine peptide fold change vs DMSO (competition) (log2 fold change); higher = less target engagement (more negative = stronger competition). As to conditions: THP-1, incubation time: 4 h.
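Note: competitive chemoproteomic profiling in live THP-1 cells with an iodoacetamide desthiobiotin (IA-DTB) probe, comparing probe-labelled peptide intensities in compound-treated cells against DMSO-treated controls.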

For “PHF14_O94880_471_AYFHVTCAQK (UniProt O94880)”, the “probe-labelled cysteine peptide fold change” value by setting is: (10 µM) 0.0464; (50 µM) 0.0958.
For the target “PHGDH_O43175_111_GILVMNTPNGNSLSAAELTCGMIMCLAR (UniProt O43175)”, the “probe-labelled cysteine peptide fold change” value was 0.00209 (10 µM) and -0.13 (50 µM).
Turning to “PGM2L1_Q6PCE3_125_GQVTSSCSSQR (UniProt Q6PCE3)”, the “probe-labelled cysteine peptide fold change” value was 0.144 (10 µM) and 0.21 (50 µM).
In the same order, the values of “PFN1_P07737_71_CSVIRDSLLQDGEFSMDLR (UniProt P07737)” are -0.408 and -0.21.
In the same order, the values of “PEPD_P12955_467_IEEDVVVTDSGIELLTCVPR (UniProt P12955)” are 0.432 and -0.00394.
In the case of “PHF8_Q9UPP1_89_AADIDLYHCPNCEVLHGPSIMK (UniProt Q9UPP1)”, the “probe-labelled cysteine peptide fold change” value (10 µM) was determined as 0.0137 and the “probe-labelled cysteine peptide fold change” value (50 µM) is -0.007.
In the same order, the values of “PGD_P52209_199_MVHNGIEYGDMQLICEAYHLMK (UniProt P52209)” are 0.096 and -0.0225.
For “PGM2_Q96G03_573_YYAELCAPPGNSDPEQLKK (UniProt Q96G03)”, in that order: -0.192 and -0.126.
In the same order, the values of “PGGT1B_P53609_162_ALQLEDGSFCAVPEGSENDMR (UniProt P53609)” are -0.27 and -0.326.
Turning to “PHLPP1_O60346_914_NRLENVPEWVCESR (UniProt O60346)”, the “probe-labelled cysteine peptide fold change” value by setting is: (10 µM) 0.0596; (50 µM) 0.0448.
In the same order, the values of “PHF6_Q8IWS0_212+215_CGFCHVGEEENEAR (UniProt Q8IWS0)” are -0.0628 and -0.000425.
In the same order, the values of “PEX6_Q13608_564_HLLLNEDPLNSCPPLMVVATTSR (UniProt Q13608)” are 0.0403 and 0.016.
Turning to “PHF14_O94880_874_AEDLRTECATCK (UniProt O94880)”, the “probe-labelled cysteine peptide fold change” value runs as follows: (10 µM) -0.0633; (50 µM) -0.131.
In the same order, the values of “PHF14_O94880-2_607+612_LCYHFGCLDPPLK (UniProt O94880)” are 0.273 and 0.109.
In the same order, the values of “PEX19_P40855_229_ICEQFEAETPTDSETTQK (UniProt P40855)” are 0.0705 and -0.321.
For “PHF1_O43189_327_CLFGLHAR (UniProt O43189)”, the “probe-labelled cysteine peptide fold change” value runs as follows: (10 µM) -0.13; (50 µM) -0.0784.
In the same order, the values of “PHF2_O75151_869_NSVDLDDYEEEQDHLDACFK (UniProt O75151)” are 0.259 and 0.295.
In the same order, the values of “PEX3_P56589_65_TCNMTVLSMLPTLR (UniProt P56589)” are -0.216 and -0.152.
For “PHIP_Q8WWQ0_1335_QCEELLNLIFQCEDSEPFR (UniProt Q8WWQ0)”, the “probe-labelled cysteine peptide fold change” value reads like this: (10 µM) 0.262; (50 µM) -0.00564.
As for “PI4KA_P42356_1774_VQPGCYLPSNPEAIVLDIDYK (UniProt P42356)”, the “probe-labelled cysteine peptide fold change” value reads like this: (10 µM) -0.166; (50 µM) -0.161.
In the same order, the values of “PGM2_Q96G03_484_ASYFICHDQETIK (UniProt Q96G03)” are 0.175 and 0.109.
In the same order, the values of “PFN2_P35080_84_DSLYVDGDCTMDIR (UniProt P35080)” are 0.403 and 0.375.
For “PHKA1_P46020_238_GGPQSVIHVLADEVQHCQSILNSLLPR (UniProt P46020)”, in that order: -0.259 and -0.0952.
On to “PHGDH_O43175_19_KVLISDSLDPCCR (UniProt O43175)”, for which the “probe-labelled cysteine peptide fold change” value runs as follows: (10 µM) -0.362; (50 µM) -0.232.
With “PEAK3_Q6ZS72_107_SQAAVGPACLPAELTFGPADAPLGLSLR (UniProt Q6ZS72)”, the “probe-labelled cysteine peptide fold change” value is, setting by setting: (10 µM) -0.178; (50 µM) -0.357.
In the same order, the values of “PGM1_P36871_101_LVIGQNGILSTPAVSCIIR (UniProt P36871)” are -0.133 and 0.0849.
In the same order, the values of “PHGDH_O43175_48_EELIAELQDCEGLIVR (UniProt O43175)” are -0.075 and 0.00347.
In the same order, the values of “PEX6_Q13608_474_GPPGCGK (UniProt Q13608)” are 0.0711 and 0.167.
For “PFN1_P07737_128_CYEMASHLR (UniProt P07737)”, the “probe-labelled cysteine peptide fold change” value runs as follows: (10 µM) -0.0273; (50 µM) 0.0171.
In the same order, the values of “PFKP_Q01813_641_NESCSENYTTDFIYQLYSEEGK (UniProt Q01813)” are 0.104 and -0.0845.
For the target “PHGDH_O43175_48_QNLSKEELIAELQDCEGLIVR (UniProt O43175)”, the “probe-labelled cysteine peptide fold change” value is -0.367 (10 µM) and -0.214 (50 µM).
Turning to “PEPD_P12955_158_GVNTDSGSVCR (UniProt P12955)”, the “probe-labelled cysteine peptide fold change” value (10 µM) was 0.0721 and the “probe-labelled cysteine peptide fold change” value (50 µM) is -0.0568.
